Assay results from paper PMC11083118.
These are yes or no findings as the source states them, for the method shown. Binding seen in cells or lysates may run through a third protein. Some results given as binding are weak or reduced against the parent protein; the word gives no strength. Blank lines part the entries; values can stand above or below the binder they belong to.

Legend:
[1] = target: T1, vinculin (rat (endogenous in IAR-20, IAR-6-1, IAR-6-1-DNE)) (UniProt P85972); assay: co-IP; total cell lysates (10 mM Tris-HCl pH 7.5, 0.5 mM EDTA, 150 mM NaCl, 0.5% Na deoxycholate, 1% NP-40, protease and phosphatase inhibitors) incubated with primary antibody, then Protein A or G agarose, +4 °C; Western blot; sparse cultures of control IAR-20, IAR-20 treated with EGF for 20 min, IAR-6-1 and IAR-6-1-DNE cells
T1 sequence: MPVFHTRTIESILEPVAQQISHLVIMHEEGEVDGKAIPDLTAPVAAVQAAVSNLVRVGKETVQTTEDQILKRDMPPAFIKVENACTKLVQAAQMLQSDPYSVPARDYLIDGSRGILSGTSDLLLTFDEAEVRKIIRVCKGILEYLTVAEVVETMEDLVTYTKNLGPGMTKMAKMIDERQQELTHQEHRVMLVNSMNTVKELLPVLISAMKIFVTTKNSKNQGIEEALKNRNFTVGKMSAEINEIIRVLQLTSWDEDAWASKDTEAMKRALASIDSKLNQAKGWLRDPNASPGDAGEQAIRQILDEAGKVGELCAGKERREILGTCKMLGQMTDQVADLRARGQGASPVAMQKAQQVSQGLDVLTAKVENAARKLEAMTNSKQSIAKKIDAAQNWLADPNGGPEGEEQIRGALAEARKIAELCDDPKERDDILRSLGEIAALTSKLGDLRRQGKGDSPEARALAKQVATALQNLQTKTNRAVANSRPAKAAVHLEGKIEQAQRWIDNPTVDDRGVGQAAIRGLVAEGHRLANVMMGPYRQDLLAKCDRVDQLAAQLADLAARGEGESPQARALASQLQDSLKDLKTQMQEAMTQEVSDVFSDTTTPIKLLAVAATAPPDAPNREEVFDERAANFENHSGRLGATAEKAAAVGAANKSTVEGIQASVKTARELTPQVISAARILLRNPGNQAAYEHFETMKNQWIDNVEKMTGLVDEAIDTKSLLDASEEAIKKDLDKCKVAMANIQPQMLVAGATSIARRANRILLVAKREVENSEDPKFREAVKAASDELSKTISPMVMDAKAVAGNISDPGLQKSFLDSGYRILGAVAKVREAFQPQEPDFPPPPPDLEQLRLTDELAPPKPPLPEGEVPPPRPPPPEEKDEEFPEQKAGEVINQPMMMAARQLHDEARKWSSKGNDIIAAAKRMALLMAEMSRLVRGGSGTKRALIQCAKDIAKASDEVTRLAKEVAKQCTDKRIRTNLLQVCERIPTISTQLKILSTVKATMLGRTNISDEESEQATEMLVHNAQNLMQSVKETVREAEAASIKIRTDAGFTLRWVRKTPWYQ

[2] = target: T2, α-catenin (rat (endogenous in IAR-20, IAR-6-1, IAR-6-1-DNE)) (UniProt Q5U302); assay: as above
T2 sequence: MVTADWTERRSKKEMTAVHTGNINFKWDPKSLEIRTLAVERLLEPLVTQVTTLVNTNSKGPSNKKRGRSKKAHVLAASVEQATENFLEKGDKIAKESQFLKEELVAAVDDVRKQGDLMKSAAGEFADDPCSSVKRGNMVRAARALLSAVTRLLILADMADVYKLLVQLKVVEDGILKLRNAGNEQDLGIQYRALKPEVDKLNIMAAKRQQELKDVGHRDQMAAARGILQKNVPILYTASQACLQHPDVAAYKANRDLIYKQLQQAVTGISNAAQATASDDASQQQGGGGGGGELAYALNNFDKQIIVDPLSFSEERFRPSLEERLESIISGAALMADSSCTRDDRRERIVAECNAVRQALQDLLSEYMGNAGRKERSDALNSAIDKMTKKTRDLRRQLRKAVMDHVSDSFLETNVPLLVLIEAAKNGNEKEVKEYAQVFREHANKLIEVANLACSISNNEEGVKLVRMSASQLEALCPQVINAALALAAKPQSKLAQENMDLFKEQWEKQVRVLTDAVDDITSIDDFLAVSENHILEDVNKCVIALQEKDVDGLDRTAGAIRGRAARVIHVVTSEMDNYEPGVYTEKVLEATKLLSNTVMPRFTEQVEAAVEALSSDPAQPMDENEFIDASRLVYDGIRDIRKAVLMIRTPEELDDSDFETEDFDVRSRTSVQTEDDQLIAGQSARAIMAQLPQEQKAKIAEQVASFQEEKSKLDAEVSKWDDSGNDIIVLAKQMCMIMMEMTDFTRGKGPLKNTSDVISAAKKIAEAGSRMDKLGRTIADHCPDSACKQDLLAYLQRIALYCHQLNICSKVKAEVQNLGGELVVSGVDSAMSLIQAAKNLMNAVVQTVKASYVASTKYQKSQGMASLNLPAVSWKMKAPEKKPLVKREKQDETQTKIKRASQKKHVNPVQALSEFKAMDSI

binding [1]: binds
B1: pY654-β-catenin (protein, UniProt Q9WU82 1-781)
chain: MATQADLMELDMAMEPDRKAAVSHWQQQSYLDSGIHSGATTTAPSLSGKGNPEEEDVDTSQVLYEWEQGFSQSFTQEQVADIDGQYAMTRAQRVRAAMFPETLDEGMQIPSTQFDAAHPTNVQRLAEPSQMLKHAVVNLINYQDDAELATRAIPELTKLLNDEDQVVVNKAAVMVHQLSKKEASRHAIMRSPQMVSAIVRTMQNTNDVETARCTAGTLHNLSHHREGLLAIFKSGGIPALVKMLGSPVDSVLFYAITTLHNLLLHQEGAKMAVRLAGGLQKMVALLNKTNVKFLAITTDCLQILAYGNQESKLIILASGGPQALVNIMRTYTYEKLLWTTSRVLKVLSVCSSNKPAIVEAGGMQALGPHLTDPSQRLVQNCLWTLRNLSDAATKQEGMEGLLGTLVQLLGSDDINVVTCAAGILSNLTCNNYKNKMMVCQVGGIEALVRTVLRAGDREDITEPAICALRHLTSRHQEAEMAQNAVRLHYGLPVVVKLLHPPSHWPLIKATVGLIRNLALCPANHAPLREQGAIPRLVQLLVRAHQDTQRRTSMGGTQQQFVEGVRMEEIVEGCTGALHILARDVHNRIVIRGLNTIPLFVQLLYSPIENIQRVAAGVLCELAQDKEAAEAIEAEGATAPLTELLHSRNEGVATYAAAVLFRMSEDKPQDYKKRLSVELTSSLFRTEPMAWNETADLGLDIGAQGEALGYRQDDPSYRSFHSGGYGQDALGMDPMMEHEMGGHHPGADYPVDGLPDLGHAQDLMDGLPPGDSNQLAWFDTDL
modifications: phosphotyrosine at 654

binding [2]: binds
B2: β-catenin (protein, UniProt Q9WU82 1-781)
chain: B1 chain

binding [1]: binds
B3: α-catenin (protein, UniProt Q5U302 1-922)
chain: T2 sequence
